According to article PMC10716131:
No constants are given. Whether binding was seen depends on the method and setting.

The chains behind the UniProt entries cited, without tags or fusion partners. Where a name states a change or a piece, a line headed by the entry shows the natural chain unless it says otherwise.
UniProt Q96SW2: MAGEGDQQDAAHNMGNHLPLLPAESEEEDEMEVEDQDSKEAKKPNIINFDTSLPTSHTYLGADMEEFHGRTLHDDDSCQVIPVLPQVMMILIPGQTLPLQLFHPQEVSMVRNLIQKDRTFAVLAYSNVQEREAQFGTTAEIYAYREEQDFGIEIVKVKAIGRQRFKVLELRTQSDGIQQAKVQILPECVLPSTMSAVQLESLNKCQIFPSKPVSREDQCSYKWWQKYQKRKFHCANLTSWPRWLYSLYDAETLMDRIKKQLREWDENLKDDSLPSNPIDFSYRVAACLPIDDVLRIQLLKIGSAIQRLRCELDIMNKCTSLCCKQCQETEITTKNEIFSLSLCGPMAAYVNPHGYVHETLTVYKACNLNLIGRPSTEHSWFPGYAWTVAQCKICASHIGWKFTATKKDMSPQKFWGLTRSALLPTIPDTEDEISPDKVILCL
UniProt Q16531: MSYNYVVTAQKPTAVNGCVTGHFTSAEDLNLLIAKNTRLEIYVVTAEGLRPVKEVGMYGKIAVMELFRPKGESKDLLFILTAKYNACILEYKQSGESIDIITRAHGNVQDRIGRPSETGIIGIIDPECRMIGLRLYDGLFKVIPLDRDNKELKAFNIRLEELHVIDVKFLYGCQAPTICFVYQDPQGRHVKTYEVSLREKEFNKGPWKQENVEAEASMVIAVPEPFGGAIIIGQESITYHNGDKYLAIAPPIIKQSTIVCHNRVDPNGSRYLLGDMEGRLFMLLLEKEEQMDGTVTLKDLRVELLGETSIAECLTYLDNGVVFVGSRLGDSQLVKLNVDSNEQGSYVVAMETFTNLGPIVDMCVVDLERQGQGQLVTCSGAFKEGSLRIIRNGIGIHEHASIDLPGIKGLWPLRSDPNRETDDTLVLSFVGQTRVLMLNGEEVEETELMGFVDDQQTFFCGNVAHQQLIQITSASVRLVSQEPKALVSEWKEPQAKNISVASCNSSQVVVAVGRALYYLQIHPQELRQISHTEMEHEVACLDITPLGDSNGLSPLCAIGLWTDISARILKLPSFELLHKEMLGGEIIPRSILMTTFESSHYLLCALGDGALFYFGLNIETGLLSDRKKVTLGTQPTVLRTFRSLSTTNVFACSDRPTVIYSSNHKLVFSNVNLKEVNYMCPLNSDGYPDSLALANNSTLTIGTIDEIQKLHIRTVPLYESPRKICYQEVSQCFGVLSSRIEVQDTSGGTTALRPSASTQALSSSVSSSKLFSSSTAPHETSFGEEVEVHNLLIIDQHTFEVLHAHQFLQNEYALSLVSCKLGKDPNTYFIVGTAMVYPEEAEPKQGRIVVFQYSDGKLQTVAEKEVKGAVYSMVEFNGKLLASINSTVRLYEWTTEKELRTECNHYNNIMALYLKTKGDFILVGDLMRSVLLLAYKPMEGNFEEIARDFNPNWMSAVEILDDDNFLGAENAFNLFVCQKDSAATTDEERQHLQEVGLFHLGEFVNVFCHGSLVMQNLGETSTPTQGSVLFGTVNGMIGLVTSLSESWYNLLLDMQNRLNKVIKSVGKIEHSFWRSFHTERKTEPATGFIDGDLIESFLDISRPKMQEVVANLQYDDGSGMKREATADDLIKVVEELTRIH

How the values were obtained:
[1] = biological target: T1, DDB1:CRBN complex, full-length human CRBN (residues 1–442) with N-terminal biotinylated Avi-tag, co-expressed with human DDB1 (residues 1–1140) (human) (UniProt Q96SW2+Q16531); test: SPR; DDB1:N-avi-biotin-CRBN immobilised on a streptavidin sensor (~5000–7000 RU), Biacore 8k, ABA method; SALL4 zinc fingers in 2X dilution series with 5 μM CC-220 throughout; PBS pH 7.2, 5% glycerol, total NaCl ~300 mM, 0.01% P20, 1 mM TCEP, 0.05% DMSO; 15 °C; 30 µL/minute; 1:1 kinetic modelling; both purified
[2] = biological target: T1, DDB1:CRBN complex, full-length human CRBN (residues 1–442) with N-terminal biotinylated Avi-tag, co-expressed with human DDB1 (residues 1–1140) (human); test: SPR; DDB1:N-avi-biotin-CRBN immobilised on a streptavidin sensor (~5000–7000 RU), Biacore 8k, ABA method; SALL4 zinc fingers in 2X dilution series with 5 μM pomalidomide throughout; PBS pH 7.2, 5% glycerol, total NaCl ~300 mM, 0.01% P20, 1 mM TCEP, 0.05% DMSO; 15 °C; 30 µL/minute; 1:1 kinetic modelling; both purified

binding [1]: no binding (tested: 25 μM)
binding [2]: no binding (tested: 25 μM)
B1: Human SALL4 ZF1(370–409) (domain or fragment, UniProt Q9UJQ4 370-409)
chain: DVKPKDEAALYKHKCKYCSKVFGTDSSLQIHLRSHTGERP
